Results are given in words; binding and its absence hold for the method and conditions named. In cells and extracts the contact can be indirect. Here binding means that the protein was enriched with, or labelled near, the bait; the list need not be complete.
T1: Sec13 (human (endogenous in HBE41o-)) (UniProt P55735)
T1 sequence: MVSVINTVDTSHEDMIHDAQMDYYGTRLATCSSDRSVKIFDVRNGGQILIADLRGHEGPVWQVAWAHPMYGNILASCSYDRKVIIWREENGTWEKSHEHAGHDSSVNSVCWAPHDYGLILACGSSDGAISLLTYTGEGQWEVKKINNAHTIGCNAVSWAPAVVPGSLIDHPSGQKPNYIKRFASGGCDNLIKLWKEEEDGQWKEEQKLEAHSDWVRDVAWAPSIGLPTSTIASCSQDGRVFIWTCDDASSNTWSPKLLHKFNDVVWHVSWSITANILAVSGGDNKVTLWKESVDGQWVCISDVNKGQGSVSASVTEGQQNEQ

The chains behind the UniProt entries cited, without tags or fusion partners. Residues count along the entry.
UniProt P52948, residues 1-880: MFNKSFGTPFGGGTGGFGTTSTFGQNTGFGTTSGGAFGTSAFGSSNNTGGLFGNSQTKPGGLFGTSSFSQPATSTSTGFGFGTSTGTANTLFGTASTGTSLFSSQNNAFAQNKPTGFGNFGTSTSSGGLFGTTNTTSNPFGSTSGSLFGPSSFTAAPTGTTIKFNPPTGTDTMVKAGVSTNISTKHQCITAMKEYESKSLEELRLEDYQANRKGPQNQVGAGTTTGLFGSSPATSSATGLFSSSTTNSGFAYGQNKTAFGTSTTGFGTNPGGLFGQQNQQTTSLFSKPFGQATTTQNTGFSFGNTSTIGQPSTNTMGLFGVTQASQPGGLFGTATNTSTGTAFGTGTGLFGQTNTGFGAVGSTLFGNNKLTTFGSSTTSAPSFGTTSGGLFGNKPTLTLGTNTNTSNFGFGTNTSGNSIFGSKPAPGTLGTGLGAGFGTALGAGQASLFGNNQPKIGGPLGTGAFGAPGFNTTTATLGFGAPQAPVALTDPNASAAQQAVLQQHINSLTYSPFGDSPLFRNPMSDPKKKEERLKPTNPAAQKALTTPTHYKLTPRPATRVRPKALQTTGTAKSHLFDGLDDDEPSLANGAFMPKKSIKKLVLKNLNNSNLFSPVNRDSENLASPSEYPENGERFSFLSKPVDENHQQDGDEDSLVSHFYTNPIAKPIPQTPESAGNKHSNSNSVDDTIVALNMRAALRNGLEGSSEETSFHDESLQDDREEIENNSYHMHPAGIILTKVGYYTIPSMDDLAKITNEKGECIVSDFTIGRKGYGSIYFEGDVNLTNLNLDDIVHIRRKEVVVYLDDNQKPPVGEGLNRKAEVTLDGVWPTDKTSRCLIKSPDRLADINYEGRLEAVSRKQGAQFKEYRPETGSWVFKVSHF


Target: T1, Sec13 (human (endogenous in HBE41o-))
Experiment: affinity purification with mass spectrometry; CoPIT: Sec13 antibody cross-linked to GammaBind Plus Sepharose beads, HBE41o- lysate (4 mg total protein per IP), overnight at 4 °C; mock IP with beads without antibody as control; on-bead digestion, 2D LC-MS/MS; three biological replicates

Row | Molecule | binding
1 | Nup98 (from UniProt P52948 1-880) | binds
2 | Sec31A (protein, UniProt O94979 1-1220) MKLKEVDRTAMQAWSPAQNHPIYLATGTSAQQLDATFSTNASLEIFELDLSDPSLDMKSCATFSSSHRYHKLIWGPYKMDSKGDVSGVLIAGGENGNIILYDPSKIIAGDKEVVIAQNDKHTGPVRALDVNIFQTNLVASGANESEIYIWDLNNFATPMTPGAKTQPPEDISCIAWNRQVQHILASASPSGRATVWDLRKNEPIIKVSDHSNRMHCSGLAWHPDVATQMVLASEDDRLPVIQMWDLRFASSPLRVLENHARGILAIAWSMADPELLLSCGKDAKILCSNPNTGEVLYELPTNTQWCFDIQWCPRNPAVLSAASFDGRISVYSIMGGSTDGLRQKQVDKLSSSFGNLDPFGTGQPLPPLQIPQQTAQHSIVLPLKKPPKWIRRPVGASFSFGGKLVTFENVRMPSHQGAEQQQQQHHVFISQVVTEKEFLSRSDQLQQAVQSQGFINYCQKKIDASQTEFEKNVWSFLKVNFEDDSRGKYLELLGYRKEDLGKKIALALNKVDGANVALKDSDQVAQSDGEESPAAEEQLLGEHIKEEKEESEFLPSSGGTFNISVSGDIDGLITQALLTGNFESAVDLCLHDNRMADAIILAIAGGQELLARTQKKYFAKSQSKITRLITAVVMKNWKEIVESCDLKNWREALAAVLTYAKPDEFSALCDLLGTRLENEGDSLLQTQACLCYICAGNVEKLVACWTKAQDGSHPLSLQDLIEKVVILRKAVQLTQAMDTSTVGVLLAAKMSQYANLLAAQGSIAAALAFLPDNTNQPNIMQLRDRLCRAQGEPVAGHESPKIPYEKQQLPKGRPGPVAGHHQMPRVQTQQYYPHGENPPPPGFIMHGNVNPNAAGQLPTSPGHMHTQVPPYPQPQPYQPAQPYPFGTGGSAMYRPQQPVAPPTSNAYPNTPYISSASSYTGQSQLYAAQHQASSPTSSPATSFPPPPSSGASFQHGGPGAPPSSSAYALPPGTTGTLPAASELPASQRTGPQNGWNDPPALNRVPKKKKMPENFMPPVPITSPIMNPLGDPQSQMLQQQPSAPVPLSSQSSFPQPHLPGGQPFHGVQQPLGQTGMPPSFSKPNIEGAPGAPIGNTFQHVQSLPTKKITKKPIPDEHLILKTTFEDLIQRCLSSATDPQTKRKLDDASKRLEFLYDKLREQTLSPTITSGLHNIARSIETRNYSEGLTMHTHIVSTSNFSETSAFMPVLKVVLTQANKLGV | binds
3 | Mios (protein, UniProt Q9NXC5 1-875) MSGTKPDILWAPHHVDRFVVCDSELSLYHVESTVNSELKAGSLRLSEDSAATLLSINSDTPYMKCVAWYLNYDPECLLAVGQANGRVVLTSLGQDHNSKFKDLIGKEFVPKHARQCNTLAWNPLDSNWLAAGLDKHRADFSVLIWDICSKYTPDIVPMEKVKLSAGETETTLLVTKPLYELGQNDACLSLCWLPRDQKLLLAGMHRNLAIFDLRNTSQKMFVNTKAVQGVTVDPYFHDRVASFYEGQVAIWDLRKFEKPVLTLTEQPKPLTKVAWCPTRTGLLATLTRDSNIIRLYDMQHTPTPIGDETEPTIIERSVQPCDNYIASFAWHPTSQNRMIVVTPNRTMSDFTVFERISLAWSPITSLMWACGRHLYECTEEENDNSLEKDIATKMRLRALSRYGLDTEQVWRNHILAGNEDPQLKSLWYTLHFMKQYTEDMDQKSPGNKGSLVYAGIKSIVKSSLGMVESSRHNWSGLDKQSDIQNLNEERILALQLCGWIKKGTDVDVGPFLNSLVQEGEWERAAAVALFNLDIRRAIQILNEGASSEKGDLNLNVVAMALSGYTDEKNSLWREMCSTLRLQLNNPYLCVMFAFLTSETGSYDGVLYENKVAVRDRVAFACKFLSDTQLNRYIEKLTNEMKEAGNLEGILLTGLTKDGVDLMESYVDRTGDVQTASYCMLQGSPLDVLKDERVQYWIENYRNLLDAWRFWHKRAEFDIHRSKLDPSSKPLAQVFVSCNFCGKSISYSCSAVPHQGRGFSQYGVSGSPTKSKVTSCPGCRKPLPRCALCLINMGTPVSSCPGGTKSDEKVDLSKDKKLAQFNNWFTWCHNCRHGGHAGHMLSWFRDHAECPVSACTCKCMQLDTTGNLVPAETVQP | binds
